# Measurements published in PubChem BioAssay AID1347131 (National Center for Advancing Translational Sciences (NCATS), 2019).
# Among all 410,000 compounds or so, about 2,000 (0.49%) were called active. The shares of active, inactive and inconclusive entries below differ from those in the screen. Calls follow the shape of the full dose curve; tested in HEK293 reporter line. A potency beside an inconclusive call is a rough fit, not a confirmed value.
# Experiment: qHTS Assay for Foot and Mouth Disease Virus Antivirals: Primary Screen against the MLPCN compound library; also: nearly all actives have a fitted effect of over 55% in size
# Details: FMDV antiviral cell-based qHTS; activity, negative = inhibition: at 57.9 µM (top of the series)
# Potency is read from the fitted curve at half-maximal effect.
SMILES,Potency,"activity, negative = inhibition"
Cc1ccc(N)cc1O,"inconclusive: 7.94 µM [inhibitor, full curve]",
COC1=CC(=O)c2nc(Cl)ccc2C1=O,"inconclusive: 10 µM [inhibitor, partial curve, poor fit]",
CCOc1ccc(N(C)S(=O)(=O)c2cc(-c3cc(C)no3)ccc2CC)cc1,"inconclusive: 17.8 µM [inhibitor, partial curve, poor fit]",
CNC(CC(=O)c1ccc([N+](=O)[O-])cc1)C(Cl)(Cl)Cl (stereo not given),"inconclusive: 31.6 µM [inhibitor, partial curve, poor fit]",
Cc1ccc2c(c1)nnn2C1CCN(S(=O)(=O)c2cccc(S(=O)(=O)N(C)C)c2)CC1,"inconclusive: 17.8 µM [inhibitor, partial curve, poor fit]",
Oc1c(N=Nc2ccccn2)ccc2ccccc12,"inconclusive: 15.8 µM [inhibitor, single point]",
COc1ccc(CC(=O)Nc2cccc(-c3ccc4nncn4n3)c2)cc1OC,"inconclusive: 17.8 µM [inhibitor, partial curve, poor fit]",
Cc1ccc(Cl)cc1N1CCN(C(=O)c2cc3c(=O)[nH]c4ccccc4c3n2C)CC1,"inconclusive: 7.94 µM [inhibitor, full curve, poor fit]",
COc1ccc(-c2cc(-c3ccccc3)c(C#N)c(S(C)(=O)=O)n2)cc1,"inconclusive: 39.8 µM [inhibitor, partial curve, poor fit]",
O=c1[nH]c(=O)n(Cc2ccco2)c2c1C(C(F)(F)F)(C(F)(F)F)N=C(c1ccc(F)cc1)N2,"inconclusive: 4.47 µM [inhibitor, full curve, poor fit]",
COc1cccc(-c2nc(CS(=O)(=O)CC(=O)NCC(C)c3ccccc3)c(C)o2)c1 (stereo not given),"inconclusive: 11.2 µM [inhibitor, partial curve]",
O=C(Nc1cccc(S(=O)(=O)N2CCOCC2)c1)c1ccc(Cl)c([N+](=O)[O-])c1,"inconclusive: 39.8 µM [inhibitor, partial curve, poor fit]",
CC(C)(C)OC(=O)N1CCCC(C(=O)Nc2cccc(C(=O)NCc3ccccc3)c2)C1 (stereo not given),,inactive: -40.2%
CNC(=O)OCc1nc(SSC(C)(C)C)n(C)c1COC(=O)NC,"inconclusive: 35.5 µM [inhibitor, partial curve, poor fit]",
CN(C)c1ccc(C=c2c3cc([N+](=O)[O-])ccc3n3c2cc(-c2ccccc2)[n+]3C)cc1,"inconclusive: 31.6 µM [inhibitor, partial curve, poor fit]",
COc1cc(C2N=C(N)Nc3nc4ccccc4n32)ccc1OCCC(C)C (stereo not given),"inconclusive: 10 µM [inhibitor, partial curve]",
Cc1nc(N2CCN(c3ccccn3)CC2)c2c(C)c(C(=O)Nc3ccc(F)cc3Cl)sc2n1,"inconclusive: 11.2 µM [inhibitor, partial curve, poor fit]",
COC(=O)C1=C(c2c(C)noc2C)C[C@@H]2CC[C@H]1N2C(=O)N1CCOCC1,"inconclusive: 3.16 µM [inhibitor, full curve]",
CCOc1ccc(-c2nc(CSCC(=O)N3CCN(c4cccc(OC)c4)CC3)c(C)o2)cc1,"inconclusive: 20 µM [inhibitor, partial curve, poor fit]",
CN(c1ccccc1)S(=O)(=O)c1ccc(C(=O)NCCc2ccc(F)cc2)cc1,,inactive: -32.5%

SMILES,Potency,"activity, negative = inhibition"
Cc1cccc(C)c1-n1nnnc1C1(C)CCC(=O)N1C1CC1 (stereo not given),"inconclusive: 2.82 µM [inhibitor, full curve]",
COc1cccc(C(=O)Nc2cc(-c3ccccc3)no2)c1,"inconclusive: 22.4 µM [inhibitor, single point]",
Cc1cccc(NC(=O)CSc2nc3ccc(NC(=O)c4ccco4)cc3s2)c1,"inconclusive: 25.1 µM [inhibitor, single point]",
COC(=O)c1cccc(Nc2c(-c3ccc(O)c(OC)c3)nc3nc[nH]n23)c1,"inconclusive: 3.98 µM [inhibitor, full curve]",
CCCN1C=CC(=C2C(=O)c3ccccc3C2=O)C=C1,"inconclusive: 1 µM [inhibitor, full curve, poor fit]",
CC(C)N(Cc1ccccc1)C(=O)CCS(=O)(=O)c1cc2c(cc1Cl)NC(=O)CO2,"inconclusive: 1.12 µM [inhibitor, partial curve, poor fit]",
Cc1c(CN2CCC(C(=O)Nc3cccc(-c4cccc(Cl)c4)c3)CC2)cnn1C,"inconclusive: 2.24 µM [inhibitor, full curve]",
O=C(COc1ccc2ccc(=O)oc2c1)Nc1cccc(S(=O)(=O)N2CCCCC2)c1,"inconclusive: 14.1 µM [inhibitor, partial curve, poor fit]",
Nc1c(C(=O)NCc2ccc3c(c2)OCO3)nnn1-c1ccc(OC(F)(F)F)cc1,"inconclusive: 17.8 µM [inhibitor, partial curve]",
CCn1ccc2cc(S(=O)(=O)N3CCC(C(=O)NCCc4ccc(C)cc4)CC3)ccc21,"inconclusive: 2.82 µM [inhibitor, partial curve]",
CC1CCc2c(sc3nc(C(C)(C)C)nc(N4CCN(C(=O)CCl)CC4)c23)C1 (stereo not given),"inconclusive: 20 µM [inhibitor, partial curve, poor fit]",
O=C(Nc1nc2ccc(F)cc2s1)c1nc(S(=O)(=O)Cc2ccccc2)ncc1Cl,"inconclusive: 28.2 µM [inhibitor, partial curve, poor fit]",
COc1cc2c(cc1OC)C1C/C(=N\O)C(CC(C)C)CN1CC2 (stereo not given),,inconclusive: -41.1% [inhibitor]
Cc1cc(C)nc(NS(=O)(=O)c2ccc(-n3cccc3)cc2)n1,,inactive: 116%
O=C(c1ccc(S(=O)(=O)c2ccccc2Cl)c([N+](=O)[O-])c1)N1CCN(Cc2ccccc2)CC1,"inconclusive: 11.2 µM [inhibitor, partial curve, poor fit]",
COc1ccc(C(=O)NC(=S)Nc2cccc3nc(C)ccc23)cc1OC,,inconclusive: -36.2% [inhibitor]
C(=C\c1nc(N2CCCCCC2)c2ccccc2n1)/c1ccccc1,"inconclusive: 39.8 µM [inhibitor, partial curve, poor fit]",
Cc1ccccc1C(=O)Nc1ccc2c(c1)OCO2,"inconclusive: 14.1 µM [inhibitor, single point]",
Cc1oc(-c2cc(F)ccc2F)nc1CN1CCN(c2ncnc3ccccc23)CC1,"inconclusive: 15.8 µM [inhibitor, partial curve, poor fit]",
COc1cccc(Cn2cccc(NC(=O)Nc3ccc(C#N)cc3)c2=O)c1,"inconclusive: 17.8 µM [inhibitor, partial curve, poor fit]",

SMILES,Potency,"activity, negative = inhibition"
COc1ccccc1C1CC(c2ccc(Br)cc2)=NN1C(=O)c1cccnc1 (stereo not given),"inconclusive: 31.6 µM [inhibitor, partial curve, poor fit]",
CCOC(=O)C(=Cc1ccc(-n2cncn2)cc1)C(=O)OCC,"inconclusive: 28.2 µM [inhibitor, partial curve, poor fit]",
CC(C)Cc1ccc(C(C)/C=C2/CCC(CN3CCCCC3)C2=O)cc1 (stereo not given),"inconclusive: 39.8 µM [inhibitor, partial curve, poor fit]",
CCOC(=O)c1c(N)sc(N)c1C(=O)OCC,"inconclusive: 31.6 µM [inhibitor, partial curve, poor fit]",
O=C1NC(=O)N(c2ccc3c(c2)OCO3)C(=O)/C1=C/c1ccsc1,,inactive: -40.4%
CC(C)NC(=O)CSc1nnc(-c2ccc(F)cc2)c2ccccc12,,inconclusive: -37.1% [inhibitor]
Clc1ccc(-c2cn3nc4c(nc3n2)CCCC4)cc1,"inconclusive: 11.2 µM [inhibitor, partial curve, poor fit]",
CC[C@@]1(C(=O)OC)N[C@H](CN(C)C(=O)Nc2ccccc2)[C@@H]2C(=O)N(C)C(=O)[C@@H]21,"inconclusive: 4.47 µM [inhibitor, partial curve, poor fit]",
Clc1ccc(OCc2cc(-c3ccccc3)no2)c(Cl)c1,active: 12.6 µM,
CCCCCn1c(NC(=O)c2ccco2)c(C(=O)OCC)c2nc3ccccc3nc21,,inactive: -41.5%
Cc1ccc(CSc2nc3ccccc3cc2C=O)cc1,,inactive: -33.3%
COc1ccc(OC)c(S(=O)(=O)Nc2ccc(F)cc2)c1,,inactive: 125%
CN(C)c1ccc(N/C=C/C(=O)c2ccccc2)cc1,"inconclusive: 10 µM [inhibitor, partial curve, poor fit]",
Cc1cccc(NC(=O)c2ccc(N3C(=O)C4C5C=CC(C6CC56)C4C3=O)cc2)c1 (stereo not given),"inconclusive: 25.1 µM [inhibitor, partial curve, poor fit]",
CC(=O)Nc1ccc(NC(=O)C(C)OC(=O)C2(c3ccc(F)cc3)CCCC2)cc1 (stereo not given),"inconclusive: 25.1 µM [inhibitor, single point]",
CNc1ccccc1C(=O)OCC(=O)N1CCN(c2ccc(OC)cc2)CC1,"inconclusive: 22.4 µM [inhibitor, partial curve, poor fit]",
O=C(c1ccc2c(c1)N(Cc1ccccc1F)C(=O)c1ccccc1S2=O)N1CCN(c2ccccc2)CC1 (stereo not given),,inactive: -37.1%
O=C(CSc1nc2ccc([N+](=O)[O-])cc2[nH]1)NC1CCCCCC1,"inconclusive: 5.62 µM [inhibitor, full curve, poor fit]",
Cn1c(N=Nc2ccccc2)nc2ccccc21,"inconclusive: 7.08 µM [inhibitor, full curve]",
CCN1C(=O)[C@H]2[C@@H](c3ccc(OC)cc3)N[C@]3(CCCN(Cc4ccc(F)cc4)C3=O)[C@H]2C1=O,"inconclusive: 8.91 µM [inhibitor, partial curve, poor fit]",
